# Assay results: PubChem BioAssay AID192 (DTP/NCI, 2004)
# The list is a part of this screen's results and no random one: it is rich in T/C values a quarter to a half above the control, in often repeated tests (any T/C) and in doses without a T/C. Other doses and runs of a compound stand elsewhere. T/C is the treated group as % of the vehicle group. Some entries give survivors of the animals treated and no T/C: the source holds a T/C of zero for them, seemingly a mark for toxic or unscored doses. Some doses without a T/C left all or most animals alive at the check, yet need not have been tolerated: the source hardly ever lists a survival T/C far under the control, and the zero likely stands for such cases as well. Counts of survivors are from the toxicity check (mostly the fifth day) where no day follows; animals may have died later. Schedule codes are those of the source, read here as Q, the interval in days (D) or hours (H), X, the number of doses. Some entries were tested several times; the values are given in rising order. For survival time, the PubChem record calls one and a half times the control and up active, and a quarter to a half above the control has no call in these data; cut-offs in other NCI protocols can differ. Square brackets hold non-standard residues; d marks the D form. Peptide text beside a SMILES is read from it. * marks the point of attachment. ξ: configuration not given here. ξF = NC(Cc1ccccc1)C(=O)O; Bz = O=C(c1ccccc1)*
# Tested on: BDF1 mice, B16 melanoma ip, median survival T/C
# Assay: NCI In Vivo Anticancer Drug Screen. Data for tumor model B16 Melanoma (intraperitoneal) in B6D2F1 (BDF1) mice
# Settings: T/C endpoint: median survival time, schedule: Q01DX009 (ip), higher T/C = longer survival
# How it was run: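 In this screen, activity was judged from survival or tumor size in treated versus vehicle-treated tumor-bearing mice, reported as T/C.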
# [1] = dose: 50.0 mg/kg/injection, vehicle: saline with Tween-80
# [2] = dose: 100.0 mg/kg/injection, vehicle: saline with Tween-80
# [3] = dose: 400.0 mg/kg/injection, vehicle: saline with Tween-80
# [4] = dose: 200.0 mg/kg/injection, vehicle: saline with Tween-80
# [5] = dose: 25.0 mg/kg/injection, vehicle: saline with Tween-80
# [6] = dose: 4.0 mg/kg/injection, vehicle: saline
# [7] = dose: 100.0 mg/kg/injection, vehicle: saline
smiles,measurement,setting,value
CNC(=S)N/N=C(/C)CCC/C(C)=N/NC(=S)NC,survivor count,[1],5 of 10
same,survivor count,[2],4 of 10
O=CNC(Cc1ccccc1)C(=O)O (stereo not drawn),survivor count,[3],10 of 10
CCCCCCCCCCCCCCCCCCOCC(CO)OC (stereo not drawn),survivor count,[3],2 of 10
C=C1C(=O)OC2C1C(OC(=O)/C(C)=C/COC(C)=O)CC1(CO1)C1C(O)C=C(C)C21 (stereo not drawn),survivor count,"dose: 50.0 mg/kg/injection, vehicle: other",6 of 10
CCN1/C(=C/C=C/C=C\C=C\c2sc3ccc4ccccc4c3[n+]2CC)Sc2ccc3ccccc3c21,survivor count,"dose: 1.25 mg/kg/injection, vehicle: saline with Tween-80",9 of 10
same,survivor count,"dose: 5.0 mg/kg/injection, vehicle: saline with Tween-80",10 of 10
same,survivor count,"dose: 40.0 mg/kg/injection, vehicle: saline with Tween-80",9 of 10
C#CC(C)OCC1CNC(=S)O1 (stereo not drawn),survivor count,[4],10 of 10
COc1cc(/C=C/c2nc3ccccc3nc2/C=C/c2cc(OC)c(OC)c(OC)c2)cc(OC)c1OC,survivor count,[5],10 of 10
same,survivor count,[1],10 of 10
same,survivor count,[2],10 of 10
same,survivor count,[4],9 of 10
same,survivor count,[3],8 of 10
CC(C)CC(Br)C(=O)NC(CC(C)C)C(=O)O (stereo not drawn),survivor count,[4],10 of 10
CN(C)N=Nc1ccc(NC(N)=O)cc1,survivor count,"dose: 75.0 mg/kg/injection, vehicle: Klucel (hydroxypropylcellulose) (HPC)",0 of 10
same,survivor count,"dose: 150.0 mg/kg/injection, vehicle: Klucel (hydroxypropylcellulose) (HPC)",2 of 10
same,survivor count,"dose: 300.0 mg/kg/injection, vehicle: Klucel (hydroxypropylcellulose) (HPC)",0 of 10
O=C(CC(O)(C(F)(F)F)C(F)(F)F)c1ccccc1[N+](=O)[O-],survivor count,"dose: 1.5 mg/kg/injection, vehicle: DMSO",10 of 10
same,survivor count,"dose: 3.0 mg/kg/injection, vehicle: DMSO",10 of 10
same,survivor count,"dose: 6.0 mg/kg/injection, vehicle: DMSO",10 of 10
same,survivor count,"dose: 6.25 mg/kg/injection, vehicle: DMSO",10 of 10
same,survivor count,"dose: 12.5 mg/kg/injection, vehicle: DMSO",10 of 10
same,survivor count,"dose: 25.0 mg/kg/injection, vehicle: DMSO",10 of 10
CN(C(=S)S(=O)(=O)C12CC3CC(CC(C3)C1)C2)c1ccccc1,survivor count,"dose: 100.0 mg/kg/injection, vehicle: Klucel (hydroxypropylcellulose) (HPC)",9 of 10
CCS/C(SC)=C(/c1ccccc1)[P+](c1ccccc1)(c1ccccc1)c1ccccc1,survivor count,"dose: 3.0 mg/kg/injection, vehicle: Klucel (hydroxypropylcellulose) (HPC)",3 of 10 and 10 of 10
same,survivor count,"dose: 6.0 mg/kg/injection, vehicle: Klucel (hydroxypropylcellulose) (HPC)",0 of 10
same,survivor count,"dose: 12.0 mg/kg/injection, vehicle: Klucel (hydroxypropylcellulose) (HPC)",1 of 10
same,survivor count,"dose: 24.0 mg/kg/injection, vehicle: Klucel (hydroxypropylcellulose) (HPC)",2 of 10
CC(C)(C#N)N1CCCCC1,survivor count,"dose: 5.0 mg/kg/injection, vehicle: saline",7 of 10
same,survivor count,"dose: 10.0 mg/kg/injection, vehicle: saline",6 of 10
CC[C@](O)(C(=O)O)c1cc2n(c(=O)c1CO)Cc1cc3ccccc3nc1-2,T/C,"dose: 1.0 mg/kg/injection, vehicle: saline",134 % of control
same,T/C,"dose: 1.57 mg/kg/injection, vehicle: other",128 % of control
same,T/C,"dose: 2.0 mg/kg/injection, vehicle: saline, evaluated on day 45",134 % of control
same,T/C,"dose: 2.0 mg/kg/injection, vehicle: saline, evaluated on day 60",127 % of control
same,survivor count,"dose: 3.13 mg/kg/injection, vehicle: other",7 of 10
same,T/C,[6],126 % of control
same,survivor count,[6],10 of 10
same,survivor count,"dose: 6.25 mg/kg/injection, vehicle: other",9 of 10
same,survivor count,"dose: 8.0 mg/kg/injection, vehicle: saline",10 of 10 and 6 of 6
same,survivor count,"dose: 12.5 mg/kg/injection, vehicle: other",8 of 10
same,survivor count,"dose: 25.0 mg/kg/injection, vehicle: other",4 of 10
O=C(NCCCl)NC1c2cc(Cl)ccc2-c2c(Cl)cc(Cl)cc21 (stereo not drawn),survivor count,[7],6 of 6
same,survivor count,"dose: 200.0 mg/kg/injection, vehicle: saline",6 of 6
same,survivor count,"dose: 400.0 mg/kg/injection, vehicle: saline",6 of 6
same,survivor count,"dose: 800.0 mg/kg/injection, vehicle: saline",6 of 6
CS(=O)(=O)OCCN(CCOS(C)(=O)=O)c1ccc(C=O)cc1,T/C,"dose: 3.12 mg/kg/injection, vehicle: saline with Tween-80",143 % of control
same,survivor count,"dose: 12.5 mg/kg/injection, vehicle: saline with Tween-80",0 of 10
same,survivor count,[5],10 of 10
same,survivor count,[1],10 of 10
same,survivor count,[2],3 of 10
Nc1ccc2c(c1)CN1C(=O)c3ccccc3C1=N2,survivor count,[2],10 of 10
same,survivor count,[4],10 of 10
CCNCc1cc(Nc2cc(C)nc(/N=C(\N)Nc3ccc(Cl)c(Cl)c3)n2)ccc1OC,survivor count,"dose: 50.0 mg/kg/injection, vehicle: Klucel (hydroxypropylcellulose) (HPC)",6 of 10
NNC(=O)NO,survivor count,[1],10 of 10
same,survivor count,[2],10 of 10
same,survivor count,[4],10 of 10
NC(=S)Nc1cccc2ccccc12,survivor count,[1],6 of 10
same,survivor count,"dose: 75.0 mg/kg/injection, vehicle: saline with Tween-80",2 of 10
O=c1cc(-c2ccccc2)[nH]c(=S)[nH]1,T/C,[3],125 % of control
CC(NC(=O)CN(C)C(=O)OCc1ccccc1)C(=O)O (stereo not drawn),survivor count,[3],10 of 10
O=C(CNC(=O)c1ccccc1)NCC(=O)NC(Cc1ccccc1)C(=O)O (stereo not drawn) (Bz-Gly-Gly-[ξF]-OH),survivor count,[3],9 of 10
CCSc1ccc2c(cc1=O)[C@@H](NC1OC(CO)C(O)C(O)C1O)CCc1cc(OC)c(OC)c(OC)c1-2 (stereo partly drawn),survivor count,"dose: 200.0 mg/kg/injection, vehicle: other",10 of 10
same,survivor count,"dose: 400.0 mg/kg/injection, vehicle: other",10 of 10
C1CCN(CCC2CCNCC2)CC1,survivor count,[7],8 of 10
C=CCN(CC=C)CCN1CCN(CCCN2c3ccccc3Sc3ccc(C(F)(F)F)cc32)CC1,survivor count,"dose: 25.0 mg/kg/injection, vehicle: saline",7 of 10
CC1=CCC(C(C)(C)c2ccc(O)cc2)CC1 (stereo not drawn),survivor count,[1],10 of 10
same,survivor count,[2],10 of 10
